Assay results as given in publication PMC6652260 (Endocrine Connections, 2019).

By UniProt entry, the sequences of proteins in these tests, tags left out. Where a name states a change or a piece, a line headed by the entry shows the natural chain unless it says otherwise.
UniProt P50233: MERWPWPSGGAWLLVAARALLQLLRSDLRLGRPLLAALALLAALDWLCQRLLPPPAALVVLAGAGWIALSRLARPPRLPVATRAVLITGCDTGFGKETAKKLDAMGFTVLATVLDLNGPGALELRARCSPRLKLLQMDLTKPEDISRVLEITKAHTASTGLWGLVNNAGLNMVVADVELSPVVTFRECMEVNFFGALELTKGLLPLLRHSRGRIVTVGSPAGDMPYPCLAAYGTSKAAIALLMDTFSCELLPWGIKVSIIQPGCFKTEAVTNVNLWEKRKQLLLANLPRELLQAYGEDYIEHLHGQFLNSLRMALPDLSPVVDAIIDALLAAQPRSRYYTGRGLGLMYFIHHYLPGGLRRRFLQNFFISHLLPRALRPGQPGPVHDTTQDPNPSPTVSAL

Target: rat placental HSD11B2 (Rattus norvegicus, UniProt P50233)
Test: biochemical
Details: read-out: Inhibition of rat placental HSD11B2 activity

inhibition at 100 µM: > 50%
Compound: CC/C(=C(/CC)c1ccc(O)cc1)c1ccc(O)cc1 [DES, Diethylstilbestrol]
